This assay has as its target Cyclin dependent kinase 8 (CDK8) (human (endogenous in HCT116 and LOVO)) (UniProt P49336). Nature of the assay: co-IP; whole cell extract of HCT116 or LOVO cells in RIPA buffer; primary antibody 12 h at 4°C, Protein G Sepharose beads, Western blot. In general terms: Immunoblotting shows a protein as a band on a membrane.

Sequences of proteins named here, by UniProt entry; tags and fusion partners are left off.
UniProt P49336: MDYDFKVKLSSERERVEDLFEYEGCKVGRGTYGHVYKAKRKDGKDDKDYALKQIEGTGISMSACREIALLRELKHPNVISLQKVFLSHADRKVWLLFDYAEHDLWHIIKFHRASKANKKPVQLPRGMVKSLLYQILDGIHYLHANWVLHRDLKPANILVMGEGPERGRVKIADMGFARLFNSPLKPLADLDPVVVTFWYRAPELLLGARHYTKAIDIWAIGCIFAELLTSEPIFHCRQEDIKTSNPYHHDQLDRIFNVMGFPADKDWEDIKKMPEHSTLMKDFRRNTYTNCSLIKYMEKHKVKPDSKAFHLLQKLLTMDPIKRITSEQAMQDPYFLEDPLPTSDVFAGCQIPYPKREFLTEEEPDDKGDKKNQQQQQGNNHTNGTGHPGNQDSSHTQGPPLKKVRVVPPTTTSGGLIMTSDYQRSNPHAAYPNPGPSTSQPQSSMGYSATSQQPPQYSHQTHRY

These are yes or no findings as the source states them, for the method shown. In cells and extracts the contact can be indirect.

Regarding p53 (from UniProt P04637 1-393), the binding entry was “no binding”.
